## Percent effect of library compounds

From ChEMBL document CHEMBL3988442, “University of Dundee, Small-Polar-MMV Screening Library” (2021).

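Assay of Toxoplasma gondii numbers, read through their beta-galactosidase reporter with a colour substrate. Concentration: 50 µM. Higher reads as fewer parasites (inferred from which compounds were picked for retests). About 18,000 compounds were tested under these conditions; 0.94% (about 170) showed 50% or more at least once.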

The filed quantity is “Percent Effect” (%).
The controls that fix the scale are not given in the record; negative values are as filed.
Compounds were drawn at random from those tested, without regard to their results.

| SMILES | percent effect |
|---|---|
| `OCCN(c1ncc(Cl)cn1)C1CC1` | -8.119 |
| `CCC(NC(=O)c1cccn1C(C)C)[C@H]1C[C@H](O)C1` (some centres unmarked) | 3.81 |
| `O=C(NC1CCCN(C2CCCC2)C1)c1cnc[nH]1` (centres unmarked) | 13.37 |
| `CN1C(=O)Cc2cc(C(=O)NCc3ccco3)ccc21` | -5.957 |
| `O=C(NC1CC1)c1ccccc1SC1CCS(=O)(=O)C1` (centres unmarked) | -6.851 |
| `COC(=O)NC(=O)c1ccc(Cl)cc1` | -20.47 |
| `Cc1nccn1CCN(C)Cc1cc2n(n1)CCNC2` | 4.764 |
| `COC(=O)CCNC(=O)c1ccc(C#N)cc1` | -7.316 |
| `Cc1cc(N)n(CC(=O)NCc2nccn2C(C)C)n1` | 4.329 |
| `c1ccc2c(c1)SCCC2NC1=NCCN1` (centres unmarked) | -41.55 |
| `C[C@@H](O)CNC(=O)NCCCc1nc2c(s1)CCCC2` | -5.361 |
| `Cc1oncc1C(=O)NCC(C)Oc1cccnc1` (centres unmarked) | -6.579 |
| `CCOc1ncccc1NC(=O)c1[nH]ncc1Br` | 3.231 |
| `CCS(=O)(=O)NCc1cccc(N2CCCCC2=O)c1` | 20.98 |
| `Cn1nnnc1C1CCCN(C(=O)c2ccccc2)C1` (centres unmarked) | -1.082 |
| `CNc1ncc(C(=O)N2C[C@H](C3CC3)[C@@H](N)C2)cn1` | 1.962 |
| `O=C(c1cccnc1)N1CCC(C(O)C(F)(F)F)CC1` (centres unmarked) | -19.12 |
| `CCn1c(=O)c2ccccc2n(CC)c1=O` | 5.788 |
| `O=C(c1cccnc1O)N1CCCN(C2CC2)CC1` | -7.369 |
| `CC(C(=O)NC(C)(C)CO)N1CCSCC1` (centres unmarked) | -6.05 |
| `CN1CCN(c2ccccc2NC(=O)C2CC2)CC1` | 2.682 |
| `Cc1ccc(C(=O)NCc2ccc3c(c2)OCCO3)o1` | 4.222 |
| `CCNC(=O)C(C)NC(=O)N1CCc2ccc(Cl)cc21` (centres unmarked) | -7.626 |
| `Nc1nccnc1C(=O)Nc1cccc2cccnc12` | 2.445 |
| `Cc1cc(F)ccc1C1NCCNC1=O` (centres unmarked) | -17.44 |
| `CC1(N)Cc2ccccc2C1` | 13.07 |
| `CC(=O)Nc1ccc(F)c(C(=O)OCC2CCCO2)c1` (centres unmarked) | 0.1318 |
| `CC(=O)NCC(=O)NCc1nc(-c2ccccc2)n[nH]1` | 10.11 |
| `CC(C)C(=O)N1CCC(C(=O)NCC2CC2)CC1` | -0.253 |
| `Cc1noc(CN2CCC(NC(=O)C(C)C)CC2)n1` | 1.164 |
| `O=C(CCNc1ncc(Br)cn1)NCc1ccccn1` | 1.003 |
| `CCC1CCCCN1C(=O)c1csc(NC(C)=O)n1` (centres unmarked) | -14.03 |
| `COc1ccc2c(c1)[C@@H](N)CCO2` | 0.4328 |
| `Cc1ccc(F)cc1C(=O)N1CC(=O)NCC1(C)C` | -16 |
| `Cn1cc(C2CCCCN2)cn1` (centres unmarked) | 17.72 |
| `CCc1ccc(NC(=O)N[C@@H]2CNCC[C@H]2O)cc1` | -7.967 |
| `CN(C)C(=O)C1CCCN1C(=O)CC(C)(C)C` (centres unmarked) | 19.28 |
| `CS(=O)(=O)NCCN1CCOCC12CCC2` | 11.19 |
| `CCOc1cccc2c1OCC(C(=O)N(C)C)C2` (centres unmarked) | 1.553 |
| `Cc1ccc(CCNC(=O)NC(CO)CC(C)C)cn1` (centres unmarked) | 3.896 |
| `CSc1ncccc1C(=O)N1CCC(CS(N)(=O)=O)C1` (centres unmarked) | -15.47 |
| `CNCCCC(=O)Nc1cccc(-n2ccnc2)c1` | -5.455 |
| `CC(=O)c1cccc(C#N)c1` | -10.05 |
| `Cc1cc(C)n(CC(=O)N2CC(C)OCC2(C)C)n1` (centres unmarked) | 5.036 |
| `CCS(=O)(=O)NCCOc1ccc2c(c1)OCO2` | -8.278 |
| `CN(C(=O)OC(C)(C)C)C1(CO)CC1` | -5.911 |
| `O=C(CN1CCN(CCO)CC1)NCC(F)(F)F` | 2.063 |
| `CNC(=O)CN(c1ccc(Cl)cc1Cl)S(C)(=O)=O` | 17.38 |
| `Cn1cc(C2CSCCN2C(=O)c2ccncc2)cn1` (centres unmarked) | -24.36 |
| `Cc1cccc(Cl)c1OCCN` | -0.199 |
| `COCCN1CCN(CCCN2CCCC2=O)CC1` | -1.007 |
| `CC(C)(N)c1ccc2c(c1)OCCO2` | 5.232 |
| `O=C(c1c(O)cccc1F)N1CCc2cnccc21` | -0.3938 |
| `CN(C)CCn1nccc1N` | -5.589 |
| `Nc1nccc(-c2ccncc2)n1` | -0.7516 |
| `c1ccc(CNCCOc2ccccn2)cc1` | -0.3527 |
| `CC(C)NC(=O)c1ccc2n1CCNC2C` (centres unmarked) | 19.36 |
| `Nc1cnccc1NC(=O)c1ccccc1` | -11.79 |
| `CC(=O)Nc1ccc(C2=NN=C(NC(C)C)SC2)cc1` | 0.06912 |
| `CN1N=C(C(=O)Nc2ccc(Cl)cn2)CCC1=O` | -0.08364 |
| `Cc1cc(NC2CCC(=O)N(C)C2)nc(C)n1` (centres unmarked) | 42.82 |
| `CCCN(C(=O)c1ccc(F)cc1)C1CCS(=O)(=O)C1` (centres unmarked) | -6.017 |
| `COc1ccc(CO)cn1` | 1.062 |
| `CS(=O)(=O)c1ccccc1NC(=O)CN1CCCCC1` | -21.36 |
| `Cn1cc(C(=O)NCCc2ccccc2)ccc1=O` | 3.349 |
| `COCCc1noc(CNC(CCO)C(C)(C)C)n1` (centres unmarked) | 3.657 |
| `COc1ccc(NC(=O)c2cccn2C)cc1OC` | -7.903 |
| `Cc1cccnc1NC(=O)CCN` | -11.74 |
| `CSC(C)C(=O)N1CCCN(c2cccnn2)CC1` (centres unmarked) | 44.08 |
| `CN(Cc1ccc(N(C)C)cc1)C(=O)C1CCC(=O)N1` (centres unmarked) | -0.05488 |
| `Cc1noc(C)c1CN1CCC(C(=O)NC2CC2)CC1` | -4.114 |
| `Cc1cc(N2CCN(C)CC2)n2ncnc2n1` | -7.165 |
| `O=C(c1ncc(F)cc1F)N1CC[C@H]2CC[C@@H](C1)N2` | 8.157 |
| `Cc1cccc(S(=O)(=O)NC2CCNC2)c1Cl` (centres unmarked) | 0.9905 |
| `CN(Cc1cc(C#N)cs1)Cc1nccn1C` | -7.444 |
| `CC/C(C)=C/CCN1CCC2(CCCNC2=O)C1` (centres unmarked) | 8.408 |
| `CC(C)(C#N)C(=O)Nc1nc2c(s1)CCC2` | -23.46 |
| `COc1ccc2c(c1)[C@@H](N)CCC2` | 8.164 |
| `CC(C)c1ccn(CC(=O)N2CCOCC2)n1` | 13.91 |
| `CC(C)(C)OC(=O)[C@H]1CCCN1CCO` | -11.2 |
| `CC(C)NS(=O)(=O)NC1CCCCNC1=O` (centres unmarked) | 22.04 |
| `CN1C(=O)C(N)c2cc(Br)ccc21` (centres unmarked) | 12.88 |
| `Cc1cc(Cl)ccc1C(=O)NCC1(O)CCNC1` (centres unmarked) | -4.677 |
| `COc1ccc(C(=O)N2CCC(N)CC2)c(OC)c1` | -8.288 |
| `COc1ccc(F)c(F)c1C(=O)N1CCC(CN)C1` (centres unmarked) | -13.62 |
| `COc1c(F)cccc1CN1C[C@H](O)[C@@H](N(C)C)C1` | -6.178 |
| `CCc1oc(C(=O)NC(COC)C(N)=O)cc1C` (centres unmarked) | -7.834 |
| `CC(=O)N(Cc1ccccc1F)C1CCN(C)CC1` | 1.678 |
| `CCOc1ccc(-n2c(CCN)n[nH]c2=O)cc1` | 11.59 |
| `COc1ccccc1S(=O)(=O)N1CCCCC1CN` (centres unmarked) | -0.351 |
| `CC(C)C(Nc1cnn(C)c(=O)c1Cl)C(N)=O` (centres unmarked) | -8.851 |
| `O=C(Cc1cccc(O)c1)N1CCCC2(CCNC2)C1` (centres unmarked) | -9.379 |
| `CN1CCN(CCCN(C)CC(=O)N(C)C)CC1` | -1.293 |
| `CC(C)(C)OC(=O)N1CCCC(CN)C1` (centres unmarked) | 26.38 |
| `CCC(CN)N1CCc2ccccc2C1` (centres unmarked) | -2.661 |

Some entries from above, unchanged:

CCS(=O)(=O)NCCOc1ccc2c(c1)OCO2 gave -8.278%.
CC(C)(C)OC(=O)[C@H]1CCCN1CCO gave -11.2%.
O=C(c1c(O)cccc1F)N1CCc2cnccc21 gave -0.3938%.
COc1ccc(NC(=O)c2cccn2C)cc1OC gave -7.903%.
CN(C)CCn1nccc1N gave -5.589%.
CNC(=O)CN(c1ccc(Cl)cc1Cl)S(C)(=O)=O gave 17.38%.
CC(=O)Nc1ccc(C2=NN=C(NC(C)C)SC2)cc1 gave 0.06912%.
CSC(C)C(=O)N1CCCN(c2cccnn2)CC1 (centres unmarked) gave 44.08%.
CN(Cc1cc(C#N)cs1)Cc1nccn1C gave -7.444%.
COC(=O)NC(=O)c1ccc(Cl)cc1 gave -20.47%.
CNc1ncc(C(=O)N2C[C@H](C3CC3)[C@@H](N)C2)cn1 gave 1.962%.
COc1ccc(C(=O)N2CCC(N)CC2)c(OC)c1 gave -8.288%.